Results on ten molecules are retold here after patent EP4714973A1 (Gracell Bioscience (Shanghai) Co., Ltd., dated 2026).

The target in this assay is T1, CLL1 antigen (human-derived CLL1 antigen protein) (human) (UniProt Q5QGZ9).
T1 sequence (looked up): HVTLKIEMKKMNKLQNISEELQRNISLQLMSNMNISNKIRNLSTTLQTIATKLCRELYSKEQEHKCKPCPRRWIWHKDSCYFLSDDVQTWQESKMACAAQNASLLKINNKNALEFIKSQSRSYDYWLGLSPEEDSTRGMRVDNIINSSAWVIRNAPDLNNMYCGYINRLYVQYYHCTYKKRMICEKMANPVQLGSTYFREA
Description: phage display panning on coated CLL1 antigen and phage ELISA. For orientation: An ELISA detects its analyte on a solid surface through an enzyme-linked reagent.

Positions count from the first letter of the chain named. Results are given in words; binding and its absence hold for the method and conditions named. Some entries that bind do so weakly or less than the wild type.

B1: C5 anti-CLL1 single-domain antibody (VHH)
VHH: QVQLVESGGGLVQPGGSLRLSCAASGFTFSSYDMGWARQVPGKAVEWVSGIYSDGSTYYADSVKGRFTISRDNAKNTVYLQMNSLKPEDTAVYYCATDPLTSELRSWGQGTQVTVSS
On to B1, for which the binding entry was “binds”.

B2: C10 anti-CLL1 single-domain antibody (VHH)
VHH: QVQLVESGGGLVQPGGSLRLACAASGFTFSSYAMGWARQVPGKDVEWVSGIYSDGSTYYADSVKGRFTISRDNAKNTVYLQMNSLKPEDTAVYYCATDPTLENQTTAWGQGTQVTVSS
Regarding B2, the binding result is reported as “binds”.

B3: C9 anti-CLL1 single-domain antibody (VHH)
VHH: B2 VHH with A21S, D72Y
Consider B3, for which the binding result is “binds”.

B4: C3 anti-CLL1 single-domain antibody (VHH)
VHH: QVQLVESGGGLVQPGGSLRLSCAASGFTFSSYAMGWARQVPGKEVEWVSGIYSDGRTYYADSVKGRFTISRDNAKNEVYLQMNSLKPEDTAVYYCAPEPGQGVGDYWGQGTQVTVSS
As for B4, the binding entry is “binds”.

B5: C1 anti-CLL1 single-domain antibody (VHH)
VHH: QVQLVESGGGLVQPGGSLRLSCAASGFTFSSKTMGWARQVPGKAIEWLSGIYSDGSTYYADSVKGRFTISRDNAKNMVYLQMNSLKPEDTAVYYCATEDLTSYGRGTQVTVSS
B5: the binding entry is “binds”.

B6: C2 anti-CLL1 single-domain antibody (VHH)
VHH: QVQLVESGGGLVQPGGSLRLSCAASGFTFSSYAMGWARQVPGKEVEWVSGIYSDGSTYYANSVKGRFTISRDNAKNTMYLQMNSLKPEDTAVYHCATDPTVHSDLPVWGQGTLVTVSS
With B6, the binding entry is listed as “binds”.

B7: C8 anti-CLL1 single-domain antibody (VHH)
VHH: B6 VHH with Y58N, N61D, M78V, K86R, L113Q
Take B7: the binding result was “binds”.

B8: C7 anti-CLL1 single-domain antibody (VHH)
VHH: B6 VHH with Y58N, N61D, M78V, K86R
As for B8, the binding result was “binds”.

B9: C4 anti-CLL1 single-domain antibody (VHH)
VHH: B6 VHH with E44D, Y58N, N61D, M78V, K86R
Consider B9, for which the binding entry is reported as “binds”.

B10: C6 anti-CLL1 single-domain antibody (VHH)
VHH: B6 VHH with A23T, Y58N, N61D, M78V, K86R
Turning to B10, the binding result is “binds”.
